Values from PubChem BioAssay AID1508588 (Peter MacCallum Cancer Centre, 2020)
Aim: 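Knock-downs boosting vemurafenib effects on melanoma cell growth or lactate release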 (primary screen). Cell system: human WM266.4 melanoma cells (BRAF V600 mutant). Knock-down reagent: siRNA pool against human genes, 40 nM. Timing: 96 h from transfection to read-out. Challenge: vemurafenib 300 nM (about IC25), added 48 h after transfection, for 48 h; comparison arm got DMSO vehicle only. Measurement: 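Cell gain (DAPI nuclei at end minus before drug, mean of two replicates) and medium lactate by absorbance per cell, both as ratio to non-targeting siRNA, also grouped into fold-change classes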. Reading the numbers: cell gain with vemurafenib: higher = more cell gain than with non-targeting siRNA; lactate per cell with vemurafenib: higher = more lactate made per cell. Call rule: 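Enhancement is called by pairing each knock-down's vehicle-arm and drug-arm fold-change classes for viability or glycolysis; which class combinations qualify is not given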. Meaning of the calls: active = enhances vemurafenib effect; inactive = no enhancement seen.
This is an unselected part of about 18,000 reagents tested. 790 of all reagents (4.4%) were called active. 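Calls rest on a combination of fold-change classes in drug and vehicle arms, not all shown here.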 No sequences are given here.

ROCK2 (Rho associated coiled-coil containing protein kinase 2) — cell gain with vemurafenib: 0.67; lactate per cell with vemurafenib: 1.25; Call: inactive
KISS1 (KiSS-1 metastasis suppressor) — cell gain with vemurafenib: 0.48; lactate per cell with vemurafenib: 1.27; Call: inactive
OGA (O-GlcNAcase) — cell gain with vemurafenib: 0.67; lactate per cell with vemurafenib: 1.66; Call: inactive
TRPM2 — cell gain with vemurafenib: 1.06; lactate per cell with vemurafenib: 0.62; Call: inactive
TEAD2 (TEA domain transcription factor 2) — cell gain with vemurafenib: 0.95; lactate per cell with vemurafenib: 0.46; Call: inactive
GRID1 (glutamate ionotropic receptor delta type subunit 1) — cell gain with vemurafenib: 0.71; lactate per cell with vemurafenib: 0.62; Call: inactive
TMEM107 (transmembrane protein 107) — cell gain with vemurafenib: 0.17; lactate per cell with vemurafenib: 2.63; Call: inactive
INSM2 (INSM transcriptional repressor 2) — cell gain with vemurafenib: 1.11; lactate per cell with vemurafenib: 1.2; Call: inactive
SRSF5 (serine and arginine rich splicing factor 5) — cell gain with vemurafenib: 0.77; lactate per cell with vemurafenib: 1.32; Call: inactive

Records above whose gene name begins with T or t:
TRPM2 — cell gain with vemurafenib: 1.06; lactate per cell with vemurafenib: 0.62; Call: inactive
TEAD2 (TEA domain transcription factor 2) — cell gain with vemurafenib: 0.95; lactate per cell with vemurafenib: 0.46; Call: inactive
TMEM107 (transmembrane protein 107) — cell gain with vemurafenib: 0.17; lactate per cell with vemurafenib: 2.63; Call: inactive

More records follow:
CEP76 (centrosomal protein 76) — cell gain with vemurafenib: 0.82; lactate per cell with vemurafenib: 0.46; Call: inactive
USP48 (ubiquitin specific peptidase 48) — cell gain with vemurafenib: 0.97; lactate per cell with vemurafenib: 0.68; Call: inactive
DPP10 (dipeptidyl peptidase like 10) — cell gain with vemurafenib: 0.56; lactate per cell with vemurafenib: 0.96; Call: inactive
HNRNPLL (heterogeneous nuclear ribonucleoprotein L like) — cell gain with vemurafenib: 0.42; lactate per cell with vemurafenib: 0.86; Call: inactive
UBR2 (ubiquitin protein ligase E3 component n-recognin 2) — cell gain with vemurafenib: 0.99; lactate per cell with vemurafenib: 0.78; Call: inactive
CARF (calcium responsive transcription factor) — cell gain with vemurafenib: 0.64; lactate per cell with vemurafenib: 0.78; Call: inactive
TRPC3 — cell gain with vemurafenib: 0.45; lactate per cell with vemurafenib: 0.56; Call: inactive
KCNJ15 (potassium inwardly rectifying channel subfamily J member 15) — cell gain with vemurafenib: 0.46; lactate per cell with vemurafenib: 0.95; Call: inactive
RABGEF1 (RAB guanine nucleotide exchange factor 1) — cell gain with vemurafenib: 1.32; lactate per cell with vemurafenib: 0.77; Call: inactive
KLK13 (kallikrein related peptidase 13) — cell gain with vemurafenib: 1.33; lactate per cell with vemurafenib: 0.52; Call: inactive
CRYGN (crystallin gamma N) — cell gain with vemurafenib: 0.85; lactate per cell with vemurafenib: 0.88; Call: inactive
GABRR1 (gamma-aminobutyric acid type A receptor subunit rho1) — cell gain with vemurafenib: 0.28; lactate per cell with vemurafenib: 2.01; Call: inactive
ABHD12B (abhydrolase domain containing 12B) — cell gain with vemurafenib: 0.48; lactate per cell with vemurafenib: 0.4; Call: inactive
HIVEP2 (HIVEP zinc finger 2) — cell gain with vemurafenib: 1.28; lactate per cell with vemurafenib: 0.42; Call: active
MRRF (mitochondrial ribosome recycling factor) — cell gain with vemurafenib: 0.77; lactate per cell with vemurafenib: 0.88; Call: inactive
MTREX (Mtr4 exosome RNA helicase) — cell gain with vemurafenib: 0.61; lactate per cell with vemurafenib: 1.1; Call: inactive
ZXDB (zinc finger X-linked duplicated B) — cell gain with vemurafenib: 0.24; lactate per cell with vemurafenib: 2.37; Call: inactive
HOXA4 (homeobox A4) — cell gain with vemurafenib: 1.14; lactate per cell with vemurafenib: 0.96; Call: inactive
